Experimental data: paper PMC7760575
No constants are given. Whether binding was seen depends on the method and setting. Some results given as binding are weak or reduced against the parent protein; the word gives no strength. Where a sequence is shown, tags or fusion partners need not be part of it.

Target: T1, GST-Laf1 (S. cerevisiae) (UniProt Q03177)
T1 sequence: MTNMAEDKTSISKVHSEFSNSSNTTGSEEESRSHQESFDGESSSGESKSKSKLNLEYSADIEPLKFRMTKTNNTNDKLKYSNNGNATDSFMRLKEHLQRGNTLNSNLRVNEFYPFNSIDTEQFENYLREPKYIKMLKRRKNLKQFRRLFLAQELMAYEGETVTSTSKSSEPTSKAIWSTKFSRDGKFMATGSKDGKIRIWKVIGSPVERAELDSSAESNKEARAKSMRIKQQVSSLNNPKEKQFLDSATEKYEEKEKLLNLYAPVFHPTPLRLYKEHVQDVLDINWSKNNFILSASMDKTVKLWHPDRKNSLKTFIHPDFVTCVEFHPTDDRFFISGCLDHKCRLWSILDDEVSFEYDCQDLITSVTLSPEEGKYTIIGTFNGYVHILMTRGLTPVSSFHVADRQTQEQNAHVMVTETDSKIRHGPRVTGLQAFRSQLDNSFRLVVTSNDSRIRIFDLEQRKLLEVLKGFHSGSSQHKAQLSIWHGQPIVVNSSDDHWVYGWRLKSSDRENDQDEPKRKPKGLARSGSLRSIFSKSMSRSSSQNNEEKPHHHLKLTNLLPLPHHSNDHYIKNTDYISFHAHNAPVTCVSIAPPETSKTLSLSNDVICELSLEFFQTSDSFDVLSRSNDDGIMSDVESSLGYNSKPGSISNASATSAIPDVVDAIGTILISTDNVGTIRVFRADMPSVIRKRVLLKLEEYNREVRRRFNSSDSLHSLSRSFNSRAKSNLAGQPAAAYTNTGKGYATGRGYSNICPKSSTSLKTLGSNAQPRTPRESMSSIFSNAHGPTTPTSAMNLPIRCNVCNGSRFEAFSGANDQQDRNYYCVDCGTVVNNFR
Assay: pull-down; GST fusion (bait) and His6-tagged Lam fragment incubated 1 h at 4 °C, complexes on glutathione-agarose beads; binding buffer 81 mM NaCl, 4.5 mM KCl, 1.35 mM MgCl2, 0.09% Triton X-100, 0.1 mg/mL BSA, 20 mM HEPES pH 7.5; four washes; immunoblot (anti-His, anti-GST); both purified

B1: Lam2(633-1259)-(His)6 (domain or fragment, UniProt Q06681 633-1259)
chain: FKLEGIEYASEKKNSEFHTLFKDCDINPNEKLIVDHSCALSRDILLQGRMYISDAHIGFFSNILGWVSTVFIPFKEIVQIEKKTTAGIFPNGIVIDTLHTKYIFASFMSRDATFDLITDVWNQIILGKKYRNGFGNNDDGTISDSSSAFFDDSDDNDDDGDLDDDDPDINSTDMTSSDDIDADVFNESNDLGKNQKSTNYLLGPNKHSPTTADFKPSNNDHLVIEANINAPLGKVVNLLYGEDVSYYERILKAQKNFEISPIPNNFLTKKIRDYAYTKPLSGSIGPSKTKCLITDTLEHYDLEDYVKVLSITKNPDVPSGNIFSVKTVFLFSWDKNNSTKLTVYNSVDWTGKSWIKSMIEKGTFDGVADTTKIMISEIKKILSDEDSNINSKHQASNNESEEEIINLPTIGPPVHDPTEPDFQKGKDDTVIDEKINIPVPLGTVFSLLYGDDTSYIKKIIENQNNFNVCDIPKFVNNAREITYTKKLNNSFGPKQTKCIVTETIEHMDLNSFFMVKQIVRSPDVPYGSSFSVHTRFFYSWGDHNTTNMKVVTNVVWTGKSMLKGTIEKGSIDGQRSSTKQLVDDLKKIISNASSTKKKSRRRGKTVNKRKSSPSTIKNEKNEENFED
For B1, the binding was “binds weakly”.
